Experimental data taken from PubChem BioAssay AID588590 (National Center for Advancing Translational Sciences (NCATS), 2011).
Hit rate of the full screen: of about 390,000 compounds, about 4,000 (1%) were called active. The inconclusive results got no clear call from the source; some entries with a clear call stand among them for comparison. The call rests on the fitted dose curve; in most records, active means well fitted inhibition curve with a large enough effect; inconclusive means small, poorly fitted or top-dose-only effect, or another doubt; inactive means no such curve, though single readings can be large or run the other way. Potencies beside an inconclusive call are fits to weak or partial responses and may not hold up.

By UniProt entry, the sequences of proteins in these tests, tags left out. Where a name states a change or a piece, a line headed by the entry shows the natural chain unless it says otherwise.
UniProt Q9UNA4: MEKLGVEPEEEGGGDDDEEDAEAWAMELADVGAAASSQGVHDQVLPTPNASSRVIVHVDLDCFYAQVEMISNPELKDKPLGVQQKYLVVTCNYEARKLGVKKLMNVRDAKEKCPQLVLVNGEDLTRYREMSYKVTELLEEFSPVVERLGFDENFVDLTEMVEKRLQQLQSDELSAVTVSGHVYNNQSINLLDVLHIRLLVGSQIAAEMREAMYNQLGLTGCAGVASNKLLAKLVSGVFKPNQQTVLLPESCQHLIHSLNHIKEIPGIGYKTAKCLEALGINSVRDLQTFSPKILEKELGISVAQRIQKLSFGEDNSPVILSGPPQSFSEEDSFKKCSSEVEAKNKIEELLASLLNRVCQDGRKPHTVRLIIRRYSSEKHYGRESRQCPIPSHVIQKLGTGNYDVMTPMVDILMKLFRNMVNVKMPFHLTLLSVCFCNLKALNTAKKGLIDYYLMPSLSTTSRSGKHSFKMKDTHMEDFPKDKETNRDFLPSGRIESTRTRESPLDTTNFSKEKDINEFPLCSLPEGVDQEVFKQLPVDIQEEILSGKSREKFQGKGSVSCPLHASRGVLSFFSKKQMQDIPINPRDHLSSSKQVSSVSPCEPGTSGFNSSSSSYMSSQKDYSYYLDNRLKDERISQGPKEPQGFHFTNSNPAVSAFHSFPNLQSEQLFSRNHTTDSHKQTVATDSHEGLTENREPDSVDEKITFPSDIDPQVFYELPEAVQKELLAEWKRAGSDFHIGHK

biological target: DNA polymerase iota (Homo sapiens) (UniProt Q9UNA4); assay: qHTS for Inhibitors of Polymerase Iota; conditions: Pol iota fluorescent replication assay, 10 min; series mostly up to 115 µM; activity, negative = inhibition: at the top concentration
Summary of the method: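 Pol iota at 10 nM preincubated 15 min with compounds at room temperature; reaction started with fluorescent substrate, 50 nM final. Fluorescence read kinetically at 0 and 10 min; buffer-only wells as negative control.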
Potency means the concentration at half of the fitted maximal effect.

Structure (SMILES) | Potency | activity, negative = inhibition
COc1ccccc1Nc1c2c(nc3ccc(NC(=O)c4ccc(OC)c(OC)c4)cc13)CCCC2 | inconclusive: 35.5 µM [inhibitor, partial curve, poor fit] | 
CCOC(=O)COc1ccc(/C=C/[N+](=O)[O-])c(OCC(=O)OCC)c1 | inconclusive: 22.4 µM [inhibitor, single point] | 
CC(=O)N1CCN(CC(=O)Nc2cc(S(=O)(=O)N3CCCCC3)ccc2C)CC1 | inconclusive: 89.1 µM [inhibitor, single point] | 
CCCCN1CCNC[C@H]1Cc1ccc(O)cc1 | inconclusive: 20 µM [inhibitor, full curve, poor fit] | 
COC(=O)c1ccc(NC(=O)C2CCN(C(=O)c3cc(OC)c(OC)c(OC)c3)CC2)cc1 | inconclusive: 8.91 µM [inhibitor, partial curve, poor fit] | 
CCOC(=O)[C@H]1[C@H]2COc3ccc(Br)cc3[C@H]2N2C(=O)CN(Cc3ccc(Cl)cc3)C(=O)[C@@]12C | inconclusive: 11.2 µM [inhibitor, partial curve, poor fit] | 
COc1c(O)cc2c(c1O)C1OC(CO)C(O)C(O)C1OC2=O (configuration not stated) |  | inactive: 17.6%
CN(C)/[N+]([O-])=N/Oc1cc(F)c([N+](=O)[O-])cc1[N+](=O)[O-] | inconclusive: 15.8 µM [inhibitor, partial curve, poor fit] | 
CCn1nc(C)c(CCN(C)C(=O)Nc2ccc(C)c(Cl)c2)c1C |  | inactive: 31.2%
COc1nc(Nc2nc3ccccc3c(=O)[nH]2)nc2ccc(C)cc12 | inconclusive: 3.98 µM [inhibitor, partial curve, poor fit] | 
COCCNC(=O)c1ccc(-n2c(-c3ccccc3)cc3c2CCC(C)C3)cc1 (configuration not stated) | inconclusive: 39.8 µM [inhibitor, single point] | 
COc1cccc2c1OCC(CN1CCN(Cc3ccccc3)C(CCO)C1)=C2 (configuration not stated) | inconclusive: 28.2 µM [inhibitor, single point] | 
Cc1ccc(C)c(OC(C)C(=O)Nc2ccc(S(=O)(=O)Nc3nccs3)cc2)c1 (configuration not stated) |  | inactive: -94.9%
COc1cc(C(=O)O)ccc1OC(C)=O | active: 89.1 µM | 
O=C(O)c1ccccc1NS(=O)(=O)c1ccc(N/N=C/c2ccc(O)c(O)c2)c([N+](=O)[O-])c1 | active: 7.94 µM | 
CCNc1nc(CSc2ccccc2)nc2sc(C)c(C)c12 | inconclusive: 89.1 µM [inhibitor, partial curve, poor fit] | 
Cc1cccc(NC(=S)NC(=O)c2cccs2)n1 | inconclusive: 79.4 µM [inhibitor, partial curve, poor fit] | 

Quoted at random: 2 entries already listed
Structure (SMILES) | Potency | activity, negative = inhibition
COc1c(O)cc2c(c1O)C1OC(CO)C(O)C(O)C1OC2=O (configuration not stated) |  | inactive: 17.6%
COc1cc(C(=O)O)ccc1OC(C)=O | active: 89.1 µM | 
